Measurements as given in patent US20220242927A1.
Results are given in words; binding and its absence hold for the method and conditions named. Some results given as binding are weak or reduced against the parent protein; the word gives no strength. Sequences can lack the tags named with a protein.

By UniProt entry, the sequences of proteins in these tests, tags left out. Residues count along the entry.
UniProt P22004, residues 382-513: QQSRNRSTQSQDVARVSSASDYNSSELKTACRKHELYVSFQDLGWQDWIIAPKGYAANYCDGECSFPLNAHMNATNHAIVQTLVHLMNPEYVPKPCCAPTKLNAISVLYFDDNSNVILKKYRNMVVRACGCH

Key:
BMP6 [1] = target: BMP6 (UniProt P22004); assay: SPR (Biacore), comparative binding data
GDF8 [2] = target: T1, GDF8 (UniProt O14793); assay: SPR (Biacore), comparative binding data
T1 sequence (looked up): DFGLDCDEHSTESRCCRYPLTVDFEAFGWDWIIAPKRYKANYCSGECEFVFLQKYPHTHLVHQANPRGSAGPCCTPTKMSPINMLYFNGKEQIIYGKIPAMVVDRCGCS

GDF11 [3] = target: T2, GDF11 (UniProt O95390); assay: SPR (Biacore), comparative binding data
T2 sequence (looked up): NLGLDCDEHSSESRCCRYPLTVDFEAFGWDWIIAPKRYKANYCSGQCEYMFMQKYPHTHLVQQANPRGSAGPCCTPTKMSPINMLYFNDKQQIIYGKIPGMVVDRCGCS

GDF8 [4] = target: T1, GDF8; assay: SPR (Biacore), binding data recalled in the reporter assay text
Activin B = target: T3, Activin B (UniProt P09529); assay: as above
T3 sequence (looked up): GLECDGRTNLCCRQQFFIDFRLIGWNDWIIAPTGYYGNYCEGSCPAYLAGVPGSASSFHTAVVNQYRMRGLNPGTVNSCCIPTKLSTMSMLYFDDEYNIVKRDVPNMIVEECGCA

GDF11 [5] = target: T2, GDF11; assay: as above
BMP6 [6] = target: BMP6 (UniProt P22004); assay: SPR (Biacore), legend of FIG. 6
GDF8 [7] = target: T1, GDF8; assay: SPR (Biacore), legend of FIG. 6
GDF11 [8] = target: T2, GDF11; assay: SPR (Biacore), legend of FIG. 6

binding (BMP6 [1]): binds
binding (GDF8 [2]): binds
binding (GDF11 [3]): binds
binding (GDF8 [4]): binds
binding (Activin B): binds
binding (GDF11 [5]): binds
binding (BMP6 [6]): binds
binding (GDF8 [7]): binds
binding (GDF11 [8]): binds
B1: ActRIIB-Fc homodimer (Fc fusion, UniProt Q13705 20-134, looked up, not shown: a dimerising Fc or GST)
chain: GRGEAETRECIYYNANWELERTNQSGLERCEGEQDKRLHCYASWRNSSGTIELVKKGCWLDDFNCYDRQECVATEENPQVYFCCCEGNFCNERFTHLPEAGGPEVTYEPPPTAPT
